Assay results reported in paper PMC4982761.
No constants are given. Whether binding was seen depends on the method and setting. Binding seen in cells or lysates may run through a third protein. Some results given as binding are weak or reduced against the parent protein; the word gives no strength.

Chains of the proteins cited; added tags and fusions are not shown.
UniProt P42582: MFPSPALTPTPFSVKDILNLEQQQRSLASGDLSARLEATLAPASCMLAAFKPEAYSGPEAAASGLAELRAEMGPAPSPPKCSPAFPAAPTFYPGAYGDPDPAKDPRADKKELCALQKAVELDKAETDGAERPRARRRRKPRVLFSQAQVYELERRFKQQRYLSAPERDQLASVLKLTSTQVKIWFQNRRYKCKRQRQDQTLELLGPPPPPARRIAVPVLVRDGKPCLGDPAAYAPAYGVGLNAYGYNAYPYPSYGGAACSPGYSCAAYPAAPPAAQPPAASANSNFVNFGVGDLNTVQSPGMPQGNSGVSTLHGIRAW

B1: Xrn2 (enzyme, UniProt Q9DBR1 1-951)
chain: MGVPAFFRWLSRKYPSIIVNCVEEKPKECNGVKIPVDASKPNPNDVEFDNLYLDMNGIIHPCTHPEDKPAPKNEDEMMVAIFEYIDRLFNIVRPRRLLYMAIDGVAPRAKMNQQRSRRFRASKEGMEAAVEKQRVREEILAKGGFLPPEEIKERFDSNCITPGTEFMDNLAKCLRYYIADRLNNDPGWKNLTVILSDASAPGEGEHKIMDYIRRQRAQPNHDPNTHHCLCGADADLIMLGLATHEPNFTIIREEFKPNKPKPCALCNQFGHEVKDCEGLPREKKGKHDELADSLPCAEGEFIFLRLNVLREYLERELTMASLPFPFDVERSIDDWVFMCFFVGNDFLPHLPSLEIREGAIDRLVNIYKNVVHKTGGYLTESGYVNLQRVQMIMLAVGEVEDSIFKKRKDDEDSFRRRQKEKRKRMKRDQPAFTPSGILTPHALGSRNSPGCQVASNPRQAAYEMRMQRNSSPSISPNTSFASDGSPSPLGGIKRKAEDSDSEPEPEDNVRLWEAGWKQRYYKNKFDVDAADEKFRRKVVQSYVEGLCWVLRYYYQGCASWKWYYPFHYAPFASDFEGIADMSSEFEKGTKPFKPLEQLMGVFPAASGNFLPPTWRKLMSDPDSSIIDFYPEDFAIDLNGKKYAWQGVALLPFVDERRLRAALEEVYPDLTPEENRRNSLGGDVLFVGKLHPLRDFILELYQTGSTEPVDVPPELCHGIQGTFSLDEEAILPDQTVCSPVPMLRDLTQNTAVSINFKDPQFAEDYVFKAAMLPGARKPATVLKPGDWEKSSNGRQWKPQLGFNRDRRPVHLDQAAFRTLGHVTPRGSGTSVYTNTALPPANYQGNNYRPLLRGQAQIPKLMSNMRPQDSWRGPPPLFQQHRFERSVGAEPLLPWNRMIQNQNAAFQPNQYQMLGGPGGYPPRRDDHRGGRQGYPREGRKYPLPPPSGRYSWN
B2: Tbx5, P70326 1-518 (protein)
chain: MADTDEGFGLARTPLEPDSKDRSCDSKPESALGAPSKSPSSPQAAFTQQGMEGIKVFLHERELWLKFHEVGTEMIITKAGRRMFPSYKVKVTGLNPKTKYILLMDIVPADDHRYKFADNKWSVTGKAEPAMPGRLYVHPDSPATGAHWMRQLVSFQKLKLTNNHLDPFGHIILNSMHKYQPRLHIVKADENNGFGSKNTAFCTHVFPETAFIAVTSYQNHKITQLKIENNPFAKGFRGSDDLELHRMSRMQSKEYPVVPRSTVRHKVTSNHSPFSSETRALSTSSNLGSQYQCENGVSGPSQDLLPPPNPYPLAQEHSQIYHCTKRKDEECSSTEHPYKKPYMETSPSEEDTFYRSGYPQQQGLSTSYRTESAQRQACMYASSAPPSEPVPSLEDISCNTWPSMPSYSSCTVTTVQPMDRLPYQHFSAHFTSGPLVPRLAGMANHGSPQLGEGMFQHQTSVAHQPVVRQCGPQTGLQSPGGLQPPEFLYTHGVPRTLSPHQYHSVHGVGMVPEWSENS

Legend:
[1] = molecular target: Nkx2-5 (mouse (endogenous in E12.5 hearts)) (UniProt P42582); experiment: co-IP; endogenous proteins immunoprecipitated with the indicated antibodies from nuclear extracts of E12.5 mouse hearts, Western blotting; in Figure 3D extracts exposed to 20 µg/ml EtBr or 50 µg/ml RNaseA
[2] = molecular target: Nkx2-5 (mouse (endogenous in E12.5 hearts)), P42582; experiment: as above; conditions: remark: other sources report otherwise

Binder	binding [1]	binding [2]
B1	binds	
B2		no binding
